Measurements from PMC4991798.
No constants are given. Whether binding was seen depends on the method and setting. Binding seen in cells or lysates may run through a third protein. Some results given as binding are weak or reduced against the parent protein; the word gives no strength.

Protein sequences, listed by entry. Tags and fused reporters are not part of them.
UniProt P30279: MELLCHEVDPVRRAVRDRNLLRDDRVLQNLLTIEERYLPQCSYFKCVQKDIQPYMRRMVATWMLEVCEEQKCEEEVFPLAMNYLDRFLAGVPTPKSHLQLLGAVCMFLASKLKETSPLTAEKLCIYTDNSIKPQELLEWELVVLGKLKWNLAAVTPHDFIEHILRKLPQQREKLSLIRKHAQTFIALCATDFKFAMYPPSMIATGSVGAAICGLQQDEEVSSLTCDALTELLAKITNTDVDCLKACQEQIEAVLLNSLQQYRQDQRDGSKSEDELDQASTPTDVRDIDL
UniProt P38936: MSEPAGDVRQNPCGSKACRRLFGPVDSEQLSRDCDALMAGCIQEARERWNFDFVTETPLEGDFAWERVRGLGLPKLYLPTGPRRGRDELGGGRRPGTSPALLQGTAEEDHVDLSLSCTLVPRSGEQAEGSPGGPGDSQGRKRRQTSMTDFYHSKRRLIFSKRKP

Tests used:
[1] = molecular target: HA-tagged Cyclin D2 (UniProt P30279); experiment: co-IP; HEK293T cells transfected with HA-tagged cyclin D2; lysate (1% Triton X-100 lysis buffer) incubated with anti-HA agarose overnight at 4°C; immunoblot of endogenous partners
[2] = molecular target: cyclin D2 (endogenous, GM-CSF macrophages) (human (endogenous in primary monocyte-derived macrophages)) (UniProt P30279); experiment: co-IP; endogenous proteins in GM-CSF differentiated primary macrophages; lysate incubated with anti-cyclin D2 or anti-p21 antibody (or rabbit IgG) overnight at 4°C, then Sepharose 1-2 h; immunoblot
[3] = molecular target: Flag-tagged p21 (UniProt P38936); experiment: co-IP; HEK293T cells transfected with Flag-p21; lysate (1% Triton X-100 lysis buffer) incubated with anti-Flag M2 agarose overnight at 4°C; immunoblot of endogenous partners
[4] = molecular target: p21 (endogenous, GM-CSF macrophages) (human (endogenous in primary monocyte-derived macrophages)) (UniProt P38936); experiment: co-IP; endogenous proteins in GM-CSF differentiated primary macrophages; lysate incubated with anti-cyclin D2 or anti-p21 antibody (or rabbit IgG) overnight at 4°C, then Sepharose 1-2 h; immunoblot

## p21 (endogenous, HEK293T) (from UniProt P38936 1-164)
[1]
  binding: binds

## p21 (endogenous, GM-CSF macrophages) (from UniProt P38936 1-164)
[2]
  binding: binds

## cyclin D2 (endogenous, HEK293T) (from UniProt P30279 1-289)
[3]
  binding: binds

## cyclin D2 (endogenous, GM-CSF macrophages) (from UniProt P30279 1-289)
[4]
  binding: binds
